Earlier results as cited in patent publication US8440656B2, “Methods of treating pulmonary diseases and disorders by modulating calcium/calmodulin dependent protein kinase II activity” (University of Iowa Research Foundation, priority 2009, dated 2013).
Some entries share one result that the patent states for a list of compounds.

By UniProt entry, the sequences of proteins in these tests, tags left out. Where a name states a change or a piece, a line headed by the entry shows the natural chain unless it says otherwise.
UniProt Q13557, whole entry: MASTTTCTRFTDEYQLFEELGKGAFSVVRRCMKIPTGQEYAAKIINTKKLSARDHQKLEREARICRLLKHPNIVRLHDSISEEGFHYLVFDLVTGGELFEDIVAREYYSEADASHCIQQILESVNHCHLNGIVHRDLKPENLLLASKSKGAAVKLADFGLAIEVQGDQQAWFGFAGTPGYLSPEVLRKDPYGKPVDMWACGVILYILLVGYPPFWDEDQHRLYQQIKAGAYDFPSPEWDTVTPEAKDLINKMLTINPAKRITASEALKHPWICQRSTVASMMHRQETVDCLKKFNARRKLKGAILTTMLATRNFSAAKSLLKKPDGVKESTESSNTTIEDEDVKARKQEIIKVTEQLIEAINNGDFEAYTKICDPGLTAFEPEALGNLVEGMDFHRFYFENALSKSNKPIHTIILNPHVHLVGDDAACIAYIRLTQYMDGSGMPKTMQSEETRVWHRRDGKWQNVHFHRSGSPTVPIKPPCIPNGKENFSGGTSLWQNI

Target: CaMKIIδ (Homo sapiens, UniProt Q13557)
Settings: cited from earlier work

## Cn1cc(C2=C(c3ccccc3)C(=O)NC2=O)c2ccccc21 [Compound 7f]
  IC50: > 20 µM
